In article PMC5833691:
Results are given in words; binding and its absence hold for the method and conditions named. Binding seen in cells or lysates may run through a third protein. Some binding calls cover weakened binding; strength is not graded here. Sequences can lack the tags named with a protein.

Amino acid sequences for entries named in this document (tags omitted). Residues count along the entry.
UniProt O15321, residues 28-606: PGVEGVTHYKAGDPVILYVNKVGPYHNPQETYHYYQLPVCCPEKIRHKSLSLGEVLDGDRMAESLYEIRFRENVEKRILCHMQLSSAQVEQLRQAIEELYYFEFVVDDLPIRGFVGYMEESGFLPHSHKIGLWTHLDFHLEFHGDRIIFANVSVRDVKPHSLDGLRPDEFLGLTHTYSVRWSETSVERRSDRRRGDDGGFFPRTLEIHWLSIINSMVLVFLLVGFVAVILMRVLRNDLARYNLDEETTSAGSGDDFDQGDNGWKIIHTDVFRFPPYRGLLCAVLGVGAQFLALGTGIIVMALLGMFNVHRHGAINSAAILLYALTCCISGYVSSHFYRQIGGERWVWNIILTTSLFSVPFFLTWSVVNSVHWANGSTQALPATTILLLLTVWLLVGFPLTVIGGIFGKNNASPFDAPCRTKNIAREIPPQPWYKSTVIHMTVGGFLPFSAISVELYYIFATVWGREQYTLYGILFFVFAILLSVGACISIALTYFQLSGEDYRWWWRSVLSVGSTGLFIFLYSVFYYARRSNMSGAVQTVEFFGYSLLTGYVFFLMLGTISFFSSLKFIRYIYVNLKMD

Biological target: T1, Flag-EBAG9 (estrogen receptor-binding fragment-associated antigen 9) (human) (UniProt O00559)
T1 sequence: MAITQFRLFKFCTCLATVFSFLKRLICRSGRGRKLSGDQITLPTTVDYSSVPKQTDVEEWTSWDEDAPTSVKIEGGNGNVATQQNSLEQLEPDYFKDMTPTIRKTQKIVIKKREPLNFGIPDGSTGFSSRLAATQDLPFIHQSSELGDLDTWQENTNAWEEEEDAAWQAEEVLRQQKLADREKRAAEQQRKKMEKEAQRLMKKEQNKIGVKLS
Experiment: co-IP; lysate of 293T cells cotransfected with Flag-EBAG9 and HA-TM9SF1; immunoprecipitated with anti-EBAG9, anti-TM9SF1 or control IgG overnight at 4 °C, protein G-sepharose; lysis and wash buffer 20 mM HEPES pH 7.9, 300 mM NaCl, 1 mM EDTA, 15% glycerol, 0.5% Nonidet P-40; western blot with EBAG9 or TM9SF1 antibody

binding: binds
Substance: HA-TM9SF1 (transmembrane 9 superfamily member 1) (from UniProt O15321 28-606)
